Laboratory results as given in the supplement of paper PMC7125110.
± gives the standard error. The uncertainty is large for many entries.

B1: glmS ribozyme (parent)
chain: AUAAAAGCGCCAGAACUACAGAAAUGUAGUUGACGAGGAGGAGGUUUAUCGAAUUUUCGGCGGAUGCCUCCAAA

Variants of: B1
Test: self-cleavage kobs at 640 uM GlcN6P; higher = faster cleavage; RNA array
Settings: with glucosamine-6-phosphate
Outline: (§1)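 On sequenced MiSeq chips, barcoded ribozyme variants were made in situ by E. coli RNA polymerase and followed at 37 °C through a hybridised Cy3 probe. Glucosamine-6-phosphate was flowed in at 40 μM to 10 mM in HEPES/KCl/Mg(OAc)2 buffer. Exponential fits to normalised per-tile medians gave kobs, and weighted Michaelis–Menten fits gave kcat and KM.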
With AUAAAAGCGCCAGAUCUACAGAAAUGUAGUUGACGAGGAGGAGGUUAAUCAAAUUUUCGGCGGAUGGAUCCAAA [A15U U47A G51A C67G C68A] the “self-cleavage kobs at 640 uM GlcN6P” value was 3.52e-05 ± 2.4e-05 s⁻¹.
With AUAAAAGCGCCAGAAAUACAGAAAUGUAGUUGACGAAGAGGAGGUUUAUCGAAUUUUCGGCGGAUGCCUCCAAA [C16A G37A] the “self-cleavage kobs at 640 uM GlcN6P” value was 2.7e-05 ± 1.5e-05 s⁻¹.
For AUAAAAGCGCCAGAAAUACAGAAAUGUAGUUGACGAGGAGGAGGUUUAUCGAAUUUUCGGCGGAUGCCACCAAA [C16A U69A], the “self-cleavage kobs at 640 uM GlcN6P” value was 3.29e-05 ± 1.8e-05 s⁻¹.
AUAAAAGCGCCAGAAGUACAGAAAUGUAGUUGACGAGGAGGAGGUUUAUAGAAUUUCCGGCGGAUGCUUCGAAA [C16G C50A U57C C68U C71G] was tested, and the “self-cleavage kobs at 640 uM GlcN6P” value was 4.32e-05 ± 2.6e-05 s⁻¹.
AUAAAAGCGCCAGAAUUACAGAAAUGUAGUUGACGAGGAGGGGGUUUAUCGAAUUUCCGGCGGAUGCCUCCAAA [C16U A42G U57C] was tested, and the “self-cleavage kobs at 640 uM GlcN6P” value was 4.56e-05 ± 2.6e-05 s⁻¹.
With AUAAAAGCGCCAGAAUUACAGAAAUGUAGUUGAGGAGGAGGAGGUUUAUGGAAUUUUCGGCGGAUGCCUCCAAA [C16U C34G C50G] the “self-cleavage kobs at 640 uM GlcN6P” value was 4.75e-05 ± 2.4e-05 s⁻¹.
In the case of AUAAAAGCGCCAGAAUUACAGAAAUGUACUUGACGAGGAGGAGGUUUAUGGAAUUUUCGGCGGAUGCCUCCAAA [C16U G29C C50G], the “self-cleavage kobs at 640 uM GlcN6P” value is reported as 3.84e-05 ± 2.4e-05 s⁻¹.
AUAAAAGCGCCAGAAUUACAGAAAUGUAGUUGACGACGAGGAGGUUUAUCGAAUUUUCGGCGGAUGCCUCCAAA [C16U G37C] was tested, and the “self-cleavage kobs at 640 uM GlcN6P” value was 1.87e-05 ± 1.8e-05 s⁻¹.
AUAAAAGCGCCAGAAUUACAGAAAUGUAGUUGACGAUGAGGAGGUUUAUAGAAUUUUCGUCGGAUGCUUCCAAA [C16U G37U C50A G60U C68U] was tested, and the “self-cleavage kobs at 640 uM GlcN6P” value was 2.93e-05 ± 2.1e-05 s⁻¹.
With AUAAAAGCGCCAGAAUUACAGAAAUGUAGUUGACGAUGAGGAGGUUUAUCGAAUUUUUGGAGGAUGCCGCCAAA [C16U G37U C58U C61A U69G] the “self-cleavage kobs at 640 uM GlcN6P” value was 2.78e-05 ± 2.7e-05 s⁻¹.
AUAAAAGCGCCAGAAUUACAGAAAUGUAGUUGACGAGGAGGAGGUUAAUCGAAUUUUGGGCGGAUGCCUCCAAA [C16U U47A C58G] was tested, and the “self-cleavage kobs at 640 uM GlcN6P” value was 2.74e-05 ± 2.2e-05 s⁻¹.
With AUAAAAGCGCCAGAACUCCAGAAAUGUAGUGGACGAGGAGGAGGUUUAGCGAAUUUUCGGCGGAUGCCUCCAAA [A18C U31G U49G] the “self-cleavage kobs at 640 uM GlcN6P” value was 3.57e-05 ± 2.8e-05 s⁻¹.
For AUAAAAGCGCCAGAACUACAGACAUGUAGUUGACGAGGAGGAGGUUUAUCGAAUUUUCGGCGGAUGCCUACAAA [A23C C70A], the “self-cleavage kobs at 640 uM GlcN6P” value was 0.000158 ± 7.9e-05 s⁻¹.
In the case of AUAAAAGCGCCAGAACUACAGAAAUGUAAUUGACGAGGAGGAGGUUUAUCGAAUUUUUGACGGAUGCCUACAAA [G29A C58U G60A C70A], the “self-cleavage kobs at 640 uM GlcN6P” value is reported as 2.56e-05 ± 2e-05 s⁻¹.
In the case of AUAAAAGCGCCAGAACUACAGAAAUGUACUUGACGAGGAGGAGGUUUAUCGAAUUUUCGGCGGGUUCCUCCAAA [G29C A64G G66U], the “self-cleavage kobs at 640 uM GlcN6P” value is reported as 2.21e-05 ± 1.8e-05 s⁻¹.
With AUAAAAGCGCCAGAACUACAGAAAUGUACUUGACGAGGAGGAGGUUUAGCGAAUUUUCGGCGGAUGCCUGCAAA [G29C U49G C70G] the “self-cleavage kobs at 640 uM GlcN6P” value was 2.58e-05 ± 2.3e-05 s⁻¹.
With AUAAAAGCGCCAGAACUACAGAAAUGUAUUUGACGAGGAGGAGGUUUAUCGAAUUUUCGGAGGAUGUCUCCAAA [G29U C61A C67U] the “self-cleavage kobs at 640 uM GlcN6P” value was 2.87e-05 ± 2.2e-05 s⁻¹.
With AUAAAAGCGCCAGAACUACAGAAAUGUAUUUGACGAGGAGGAGGUUUAUCGAAGUUUCGGAGGAUGCCUCCAAA [G29U U54G C61A] the “self-cleavage kobs at 640 uM GlcN6P” value was 2.13e-05 ± 2.1e-05 s⁻¹.
For AUAAAAGCGCCAGAACUACAGAAAUGUAGAUGACGAGGAGGAGGUUUAUAGAAUUUUCGGCGGAUGCUUCCAAA [U30A C50A C68U], the “self-cleavage kobs at 640 uM GlcN6P” value was 3.12e-05 ± 2.1e-05 s⁻¹.
AUAAAAGCGCCAGAACUACAGAAAUGUAGAUGACGAGGAGGAGGUUUAUCGAAUUUUCGGCGGAUGGCUCGAAA [U30A C67G C71G] was tested, and the “self-cleavage kobs at 640 uM GlcN6P” value was 3.31e-05 ± 2.1e-05 s⁻¹.
With AUAAAAGCGCCAGAACUACAGAAAUGUAGCUGACGAGGCGGAGGUUUAUCGAAUUUUCGGCGGAUGCCUCCAAA [U30C A39C] the “self-cleavage kobs at 640 uM GlcN6P” value was 1.45e-05 ± 1.3e-05 s⁻¹.
In the case of AUAAAAGCGCCAGAACUACAGAAAUGUAGGUGACGAGGAGGAGGUUUAUCGAAUAUUCGGGGGAUGCCUCGAAA [U30G U55A C61G C71G], the “self-cleavage kobs at 640 uM GlcN6P” value is reported as 4.71e-05 ± 2.9e-05 s⁻¹.
For AUAAAAGCGCCAGAACUACAGAAAUGUAGGUGACGAGGAGGAGGUUUAUCGAAUCUUCGGCGGAAGCCUCUAAA [U30G U55C U65A C71U], the “self-cleavage kobs at 640 uM GlcN6P” value was 2.33e-05 ± 1.3e-05 s⁻¹.
AUAAAAGCGCCAGAACUACAGAAAUGUAGUAGACGAGGUGGAGGUUUAUCGAAUUUUCGGCGGAUGCCUGCAAA [U31A A39U C70G] was tested, and the “self-cleavage kobs at 640 uM GlcN6P” value was 3.05e-05 ± 2.1e-05 s⁻¹.
In the case of AUAAAAGCGCCAGAACUACAGAAAUGUAGUAGACGAGGAGGAGGUUUAUCGAAUUUUCGGCGGAUGCGUCCAAA [U31A C68G], the “self-cleavage kobs at 640 uM GlcN6P” value is reported as 2.18e-05 ± 1.4e-05 s⁻¹.
For AUAAAAGCGCCAGAACUACAGAAAUGUAGUGGACGAGGAGGAGGUUUCUCGAAUUUGCGGCGGAUGCCUGCAAA [U31G A48C U57G C70G], the “self-cleavage kobs at 640 uM GlcN6P” value was 2.61e-05 ± 1.8e-05 s⁻¹.
In the case of AUAAAAGCGCCAGAACUACAGAAAUGUAGUGGACGAGGAGGAGGUUUAUCGUAUUUUCGGCGGAUGCCUCCAAA [U31G A52U], the “self-cleavage kobs at 640 uM GlcN6P” value is reported as 2.06e-05 ± 1.4e-05 s⁻¹.
With AUAAAAGCGCCAGAACUACAGAAAUGUAGUGGACGAGGAGGAGGUUUAUCGAAUUUUCGGCGGAUGCGUCCAAA [U31G C68G] the “self-cleavage kobs at 640 uM GlcN6P” value was 2.44e-05 ± 1.4e-05 s⁻¹.
In the case of AUAAAAGCGCCAGAACUACAGAAAUGUAGUGAACGAGGAGGAGGUUUAUCGAAUUGUCGGCGGAUGCCUCCAAA [U31G G32A U56G], the “self-cleavage kobs at 640 uM GlcN6P” value is reported as 5.7e-05 ± 3e-05 s⁻¹.
With AUAAAAGCGCCAGAACUACAGAAAUGUAGUGGACGAGGAGGAGGUUUAUCGAAUUUCCGGCGGAUCCCUUCAAA [U31G U57C G66C C70U] the “self-cleavage kobs at 640 uM GlcN6P” value was 2.62e-05 ± 2.6e-05 s⁻¹.
For AUAAAAGCGCCAGAACUACAGAAAUGUAGUUAACGAGGUGGAGGUUUAUCGAAUUAUCGGCGGAUGCCUCCAAA [G32A A39U U56A], the “self-cleavage kobs at 640 uM GlcN6P” value was 2.33e-05 ± 1.2e-05 s⁻¹.

Variants of: B1
Test: self-cleavage kobs at 2500 uM GlcN6P; higher = faster cleavage; RNA array
Settings: with glucosamine-6-phosphate
Outline: as §1
AUAAAAGCGCCAGAAUUACAGAAAUGUAGUUGACGACGAGGAGGUUUAUCGAAUUUUCGGCGGAUGCCUCCAAA [C16U G37C] was tested, and the “self-cleavage kobs at 2500 uM GlcN6P” value was 1.12e-05 ± 1.1e-05 s⁻¹.
For AUAAAAGCGCCAGAAUUACAGAAAUGUAGUUGACGAUGAGGAGGUUUAUAGAAUUUUCGUCGGAUGCUUCCAAA [C16U G37U C50A G60U C68U], the “self-cleavage kobs at 2500 uM GlcN6P” value was 3.35e-05 ± 2.6e-05 s⁻¹.
With AUAAAAGCGCCAGAACUCCAGAAAUGUAGUGGACGAGGAGGAGGUUUAGCGAAUUUUCGGCGGAUGCCUCCAAA [A18C U31G U49G] the “self-cleavage kobs at 2500 uM GlcN6P” value was 3.09e-05 ± 1.7e-05 s⁻¹.
For AUAAAAGCGCCAGAACUACAGAAAUGUACUUGACGAGGAGGAGGUUUAGCGAAUUUUCGGCGGAUGCCUGCAAA [G29C U49G C70G], the “self-cleavage kobs at 2500 uM GlcN6P” value was 2.55e-05 ± 2.5e-05 s⁻¹.
In the case of AUAAAAGCGCCAGAACUACAGAAAUGUAUUUGACGAGGAGGAGGUUUAUCGAAUUUUCGGAGGAUGUCUCCAAA [G29U C61A C67U], the “self-cleavage kobs at 2500 uM GlcN6P” value is reported as 4.22e-05 ± 2.7e-05 s⁻¹.

Variants of: B1
Test: self-cleavage kobs at 160 uM GlcN6P; higher = faster cleavage; RNA array
Settings: with glucosamine-6-phosphate
Outline: as §1
AUAAAAGCGCCAGAACUACAGAAAUGUAUUUGACGAGGAGGAGGUUUAUCGAAUUUUCGGAGGAUGUCUCCAAA [G29U C61A C67U] was tested, and the “self-cleavage kobs at 160 uM GlcN6P” value was 3.18e-05 ± 2.3e-05 s⁻¹.
